Earlier results, collected in patent US4237139A, “4-(3-(4-Quinolyl)propyl)piperidines, their preparation and their use as medicines” (Pharmindustrie, priority 1976, dated 1980).

Target: benzodiazepine receptors in rat brain membranes
Details: read-out: KD, the affinity constant; constant of ^3 H-diazepam used in the Ki equation; cited from earlier work

For `CN1C(=O)CN=C(c2ccccc2)c2cc(Cl)ccc21` [^3 H-diazepam], the Kd is given as 2.74 nM.
